The record followed here is paper doi:10.1101/2020.12.16.423147.

By UniProt entry, the sequences of proteins in these tests, tags left out. Where a name states a change or a piece, a line headed by the entry shows the natural chain unless it says otherwise.
UniProt P20340: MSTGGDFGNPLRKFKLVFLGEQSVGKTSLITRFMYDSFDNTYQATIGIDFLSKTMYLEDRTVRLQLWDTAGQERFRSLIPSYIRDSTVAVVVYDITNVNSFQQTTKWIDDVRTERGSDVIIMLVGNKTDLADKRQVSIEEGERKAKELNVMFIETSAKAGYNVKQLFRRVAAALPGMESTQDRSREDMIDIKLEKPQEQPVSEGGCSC

No constants are given. Whether binding was seen depends on the method and setting. For part of these data: Binding seen in cells or lysates may run through a third protein. Some entries that bind do so weakly or less than the wild type. Sequences can lack the tags named with a protein.

For one assay, the target named is T1, GFP-VPS13B-C (human) (UniProt Q7Z7G8).
T1 sequence: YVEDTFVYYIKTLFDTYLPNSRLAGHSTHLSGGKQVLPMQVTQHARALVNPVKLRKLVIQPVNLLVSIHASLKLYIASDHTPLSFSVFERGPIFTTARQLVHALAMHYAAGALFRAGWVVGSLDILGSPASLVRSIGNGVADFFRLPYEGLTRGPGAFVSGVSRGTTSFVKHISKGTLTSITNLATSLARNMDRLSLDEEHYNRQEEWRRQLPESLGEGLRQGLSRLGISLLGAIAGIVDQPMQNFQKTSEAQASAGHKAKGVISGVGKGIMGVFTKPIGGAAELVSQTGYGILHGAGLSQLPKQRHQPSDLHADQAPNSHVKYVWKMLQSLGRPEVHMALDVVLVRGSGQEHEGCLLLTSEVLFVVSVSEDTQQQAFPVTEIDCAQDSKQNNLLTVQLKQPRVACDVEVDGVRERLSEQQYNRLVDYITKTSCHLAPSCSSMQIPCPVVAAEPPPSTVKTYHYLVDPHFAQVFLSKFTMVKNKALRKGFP
Put plainly: co-IP.

In a further assay the target is GST-Rab6 Q72L (human) (UniProt P20340). The assay can be described thus: pull-down.
The next assay concerns the target GST-Rab6 T27N (human) (UniProt P20340). Put plainly: pull-down.

In the case of Halo-Rab6 (from UniProt P20340 1-208), the binding result in the assay with GFP-VPS13B-C (human) is “binds”.

B1: His-VPS13B-PH (domain or fragment, UniProt Q7Z7G8-2 3732-3997)
chain: RLGISLLGAIAGIVDQPMQNFQKTSEAQASAGHKAKGVISGVGKGIMGVFTKPIGGAAELVSQTGYGILHGAGLSQLPKQRHQPSDLHADQAPNSHVKYVWKMLQSLGRPEVHMALDVVLVRGSGQEHEGCLLLTSEVLFVVSVSEDTQQQAFPVTEIDCAQDSKQNNLLTVQLKQPRVACDVEVDGVRERLSEQQYNRLVDYITKTSCHLAPSCSSMQIPCPVVAAEPPPSTVKTYHYLVDPHFAQVFLSKFTMVKNKALRKGFP
For the molecule B1, the binding entry with GST-Rab6 Q72L (human) and with GST-Rab6 T27N (human) was “binds” throughout.
